This is an account of results in article PMC13446905.

By UniProt entry, the sequences of proteins in these tests, tags left out.
UniProt Q5S007: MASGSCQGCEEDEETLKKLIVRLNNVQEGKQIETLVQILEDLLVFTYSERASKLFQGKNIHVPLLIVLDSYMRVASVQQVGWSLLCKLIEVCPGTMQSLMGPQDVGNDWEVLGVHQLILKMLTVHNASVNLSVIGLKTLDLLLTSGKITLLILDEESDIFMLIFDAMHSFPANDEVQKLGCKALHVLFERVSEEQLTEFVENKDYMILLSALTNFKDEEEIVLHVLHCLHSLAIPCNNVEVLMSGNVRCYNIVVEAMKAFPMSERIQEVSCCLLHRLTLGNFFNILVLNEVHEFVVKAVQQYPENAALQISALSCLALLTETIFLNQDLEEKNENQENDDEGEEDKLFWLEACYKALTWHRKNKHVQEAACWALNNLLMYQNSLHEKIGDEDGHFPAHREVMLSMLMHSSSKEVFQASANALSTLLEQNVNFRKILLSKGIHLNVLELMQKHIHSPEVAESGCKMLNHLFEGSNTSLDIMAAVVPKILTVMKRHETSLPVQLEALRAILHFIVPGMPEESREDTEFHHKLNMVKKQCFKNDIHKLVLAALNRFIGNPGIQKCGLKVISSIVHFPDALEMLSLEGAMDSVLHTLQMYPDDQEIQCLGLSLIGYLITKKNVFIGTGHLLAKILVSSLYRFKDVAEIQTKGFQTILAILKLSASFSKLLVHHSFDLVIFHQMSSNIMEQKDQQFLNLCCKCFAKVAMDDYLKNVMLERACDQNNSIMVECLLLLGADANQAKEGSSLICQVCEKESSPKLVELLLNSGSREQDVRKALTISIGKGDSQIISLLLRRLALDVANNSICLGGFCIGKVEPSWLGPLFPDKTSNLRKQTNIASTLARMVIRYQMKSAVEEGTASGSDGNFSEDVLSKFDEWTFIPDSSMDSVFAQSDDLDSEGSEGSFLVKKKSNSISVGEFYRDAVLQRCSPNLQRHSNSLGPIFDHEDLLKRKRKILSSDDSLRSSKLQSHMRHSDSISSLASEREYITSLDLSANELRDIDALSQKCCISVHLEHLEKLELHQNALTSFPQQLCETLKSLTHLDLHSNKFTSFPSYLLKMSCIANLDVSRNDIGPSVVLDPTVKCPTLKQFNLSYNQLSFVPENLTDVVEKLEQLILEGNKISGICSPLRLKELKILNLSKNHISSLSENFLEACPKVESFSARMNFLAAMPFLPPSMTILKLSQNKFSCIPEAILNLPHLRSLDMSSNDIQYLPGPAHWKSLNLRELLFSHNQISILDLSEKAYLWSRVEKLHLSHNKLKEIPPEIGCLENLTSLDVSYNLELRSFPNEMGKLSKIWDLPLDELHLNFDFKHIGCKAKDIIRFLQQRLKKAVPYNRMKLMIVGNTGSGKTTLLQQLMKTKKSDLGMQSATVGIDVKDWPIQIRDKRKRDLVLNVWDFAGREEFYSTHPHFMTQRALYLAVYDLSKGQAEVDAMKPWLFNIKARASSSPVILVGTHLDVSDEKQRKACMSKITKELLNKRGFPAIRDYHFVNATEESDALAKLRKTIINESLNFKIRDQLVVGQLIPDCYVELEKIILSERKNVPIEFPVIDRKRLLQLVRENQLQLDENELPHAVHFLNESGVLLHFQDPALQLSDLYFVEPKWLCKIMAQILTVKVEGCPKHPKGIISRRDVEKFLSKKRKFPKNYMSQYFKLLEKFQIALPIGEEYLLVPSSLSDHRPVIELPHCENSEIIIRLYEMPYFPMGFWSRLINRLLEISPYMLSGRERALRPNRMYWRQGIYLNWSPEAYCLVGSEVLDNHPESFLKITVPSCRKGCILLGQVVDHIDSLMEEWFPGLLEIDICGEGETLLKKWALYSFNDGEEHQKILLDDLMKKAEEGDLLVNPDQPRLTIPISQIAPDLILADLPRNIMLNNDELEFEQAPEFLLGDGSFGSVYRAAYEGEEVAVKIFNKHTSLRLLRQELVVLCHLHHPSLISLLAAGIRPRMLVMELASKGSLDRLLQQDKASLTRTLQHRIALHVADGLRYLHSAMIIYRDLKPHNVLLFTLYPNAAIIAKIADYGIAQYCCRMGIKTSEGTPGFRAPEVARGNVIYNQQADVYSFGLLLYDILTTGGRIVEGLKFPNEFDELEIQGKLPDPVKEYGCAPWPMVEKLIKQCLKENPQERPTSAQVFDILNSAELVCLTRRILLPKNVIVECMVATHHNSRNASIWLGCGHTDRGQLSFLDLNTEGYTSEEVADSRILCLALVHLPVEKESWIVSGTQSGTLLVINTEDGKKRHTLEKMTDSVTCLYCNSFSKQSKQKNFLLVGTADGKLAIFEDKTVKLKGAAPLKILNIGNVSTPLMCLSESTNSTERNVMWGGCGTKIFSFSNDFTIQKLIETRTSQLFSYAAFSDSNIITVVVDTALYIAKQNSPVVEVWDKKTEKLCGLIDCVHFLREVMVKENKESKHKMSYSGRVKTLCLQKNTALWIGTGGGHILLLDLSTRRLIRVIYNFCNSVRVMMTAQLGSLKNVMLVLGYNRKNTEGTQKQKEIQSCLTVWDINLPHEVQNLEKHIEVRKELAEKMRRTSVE

Results are given in words; binding and its absence hold for the method and conditions named. Binding seen in cells or lysates may run through a third protein. Some entries that bind do so weakly or less than the wild type. For part of these data: Tags and fused reporters may be left off the sequences shown.

In assay [1] the target is T1, YFP-drebrin N-terminal domain (1-256 aa) (human) (UniProt Q16643).
T1 sequence: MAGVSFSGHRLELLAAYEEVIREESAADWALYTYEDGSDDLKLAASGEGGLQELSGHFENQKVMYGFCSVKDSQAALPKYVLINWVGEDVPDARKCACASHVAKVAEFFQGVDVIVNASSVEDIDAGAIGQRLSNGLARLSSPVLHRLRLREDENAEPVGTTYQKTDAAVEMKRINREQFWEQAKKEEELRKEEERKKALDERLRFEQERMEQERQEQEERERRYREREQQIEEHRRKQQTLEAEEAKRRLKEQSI
Put plainly: co-IP; HEK293T co-expressing 3xFlag-LRRK2 and YFP-drebrin constructs; drebrin constructs immunoprecipitated with GFP-trap resin, co-precipitated LRRK2 detected by anti-Flag western blot. For orientation: In western blotting, separated proteins are transferred to a membrane and probed.

Assay [2] concerns the target T2, YFP-drebrin full-length (human) (UniProt Q16643).
T2 sequence: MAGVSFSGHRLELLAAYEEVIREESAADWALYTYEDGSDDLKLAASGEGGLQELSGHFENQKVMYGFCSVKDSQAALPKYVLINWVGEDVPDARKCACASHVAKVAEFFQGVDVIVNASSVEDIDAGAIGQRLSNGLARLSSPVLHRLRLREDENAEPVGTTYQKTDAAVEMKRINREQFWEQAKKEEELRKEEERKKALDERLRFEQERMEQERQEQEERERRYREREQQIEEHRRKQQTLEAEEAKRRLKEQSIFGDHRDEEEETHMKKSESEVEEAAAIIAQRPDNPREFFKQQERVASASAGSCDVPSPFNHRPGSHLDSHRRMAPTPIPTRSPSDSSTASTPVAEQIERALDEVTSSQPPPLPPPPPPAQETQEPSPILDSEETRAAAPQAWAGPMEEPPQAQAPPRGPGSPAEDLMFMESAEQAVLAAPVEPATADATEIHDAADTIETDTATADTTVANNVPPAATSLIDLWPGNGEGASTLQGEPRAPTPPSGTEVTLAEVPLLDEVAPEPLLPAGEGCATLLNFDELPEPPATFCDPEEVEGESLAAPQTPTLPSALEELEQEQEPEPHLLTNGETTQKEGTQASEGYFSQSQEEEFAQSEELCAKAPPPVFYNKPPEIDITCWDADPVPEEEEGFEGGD
Described as above.

In assay [3] the target is GFP-LRRK2 wild-type (UniProt Q5S007). The assay can be described thus: co-IP; GFP-trap purification of GFP-LRRK2 from RA-differentiated SH-SY5Y lysates (same samples as for MS), unstimulated or with BDNF 15 min; also from mixes of GFP-LRRK2 OE and naive SH-SY5Y lysates at ratios 4:0 to 0:4; western blot for endogenous drebrin.

“3xFlag-LRRK2 (from UniProt Q5S007 1-2527)”: the binding entry in assay [1] and in assay [2] was “binds” in each case.

B1: drebrin (protein, UniProt Q16643 1-649)
chain: T2 sequence
In the case of B1, the binding result in assay [3] is “binds”.
